1 substance from publication doi:10.1101/595702 can be followed below.

Chains of the proteins cited; added tags and fusions are not shown.
UniProt Q15154: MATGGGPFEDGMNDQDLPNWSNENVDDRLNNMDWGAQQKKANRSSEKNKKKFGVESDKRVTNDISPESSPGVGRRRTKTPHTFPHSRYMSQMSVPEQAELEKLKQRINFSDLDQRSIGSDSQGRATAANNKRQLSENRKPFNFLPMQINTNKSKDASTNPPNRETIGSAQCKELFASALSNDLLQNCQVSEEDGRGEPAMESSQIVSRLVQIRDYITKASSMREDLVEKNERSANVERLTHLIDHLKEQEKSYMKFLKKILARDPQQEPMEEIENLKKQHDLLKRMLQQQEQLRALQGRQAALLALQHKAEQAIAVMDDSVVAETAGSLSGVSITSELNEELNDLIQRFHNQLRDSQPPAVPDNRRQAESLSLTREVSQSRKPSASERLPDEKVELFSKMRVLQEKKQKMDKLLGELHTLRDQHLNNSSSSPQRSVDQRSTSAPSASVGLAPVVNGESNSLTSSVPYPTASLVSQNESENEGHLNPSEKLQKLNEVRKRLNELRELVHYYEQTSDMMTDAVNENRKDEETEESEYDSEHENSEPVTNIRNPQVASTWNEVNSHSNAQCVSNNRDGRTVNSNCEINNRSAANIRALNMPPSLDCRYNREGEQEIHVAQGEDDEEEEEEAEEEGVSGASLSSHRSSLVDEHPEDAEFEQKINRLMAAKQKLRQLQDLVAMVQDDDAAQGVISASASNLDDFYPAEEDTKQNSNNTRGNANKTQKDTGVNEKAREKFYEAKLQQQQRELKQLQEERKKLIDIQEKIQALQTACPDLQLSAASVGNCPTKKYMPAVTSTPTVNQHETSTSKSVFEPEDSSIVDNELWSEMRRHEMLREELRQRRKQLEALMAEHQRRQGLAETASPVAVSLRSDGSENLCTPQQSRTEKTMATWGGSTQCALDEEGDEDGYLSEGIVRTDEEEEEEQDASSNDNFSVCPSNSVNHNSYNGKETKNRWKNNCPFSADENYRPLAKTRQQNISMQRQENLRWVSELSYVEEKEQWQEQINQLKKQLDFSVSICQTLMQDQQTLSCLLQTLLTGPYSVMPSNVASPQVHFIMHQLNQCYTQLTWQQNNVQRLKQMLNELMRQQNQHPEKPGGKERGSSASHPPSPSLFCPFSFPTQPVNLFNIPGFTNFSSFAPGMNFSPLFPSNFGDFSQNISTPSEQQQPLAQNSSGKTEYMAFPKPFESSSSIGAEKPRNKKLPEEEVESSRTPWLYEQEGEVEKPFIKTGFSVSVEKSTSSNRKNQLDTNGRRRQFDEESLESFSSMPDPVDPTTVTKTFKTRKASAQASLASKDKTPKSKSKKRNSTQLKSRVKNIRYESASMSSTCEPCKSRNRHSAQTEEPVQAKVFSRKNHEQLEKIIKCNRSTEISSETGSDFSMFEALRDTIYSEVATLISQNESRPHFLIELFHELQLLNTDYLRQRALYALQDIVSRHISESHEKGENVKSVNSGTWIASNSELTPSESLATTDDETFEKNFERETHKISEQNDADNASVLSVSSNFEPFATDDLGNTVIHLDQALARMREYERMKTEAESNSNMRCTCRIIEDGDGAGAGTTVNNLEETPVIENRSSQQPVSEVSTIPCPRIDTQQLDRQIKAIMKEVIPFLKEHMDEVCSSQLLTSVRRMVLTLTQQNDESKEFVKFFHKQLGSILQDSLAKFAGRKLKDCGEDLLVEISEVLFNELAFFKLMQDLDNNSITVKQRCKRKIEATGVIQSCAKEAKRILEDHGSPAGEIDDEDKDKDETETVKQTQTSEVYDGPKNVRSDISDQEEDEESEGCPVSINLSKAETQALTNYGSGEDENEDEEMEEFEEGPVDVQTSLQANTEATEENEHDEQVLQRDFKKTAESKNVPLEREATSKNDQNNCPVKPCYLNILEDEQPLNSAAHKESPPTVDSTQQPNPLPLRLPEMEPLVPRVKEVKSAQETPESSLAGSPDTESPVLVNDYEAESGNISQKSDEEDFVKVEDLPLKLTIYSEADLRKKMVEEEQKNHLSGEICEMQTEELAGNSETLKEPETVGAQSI

These are yes or no findings as the source states them, for the method shown. In cells and extracts the contact can be indirect. Some results given as binding are weak or reduced against the parent protein; the word gives no strength. Tags and fused reporters may be left off the sequences shown.

Assay [1] deals with T1, TCHP-FLAG (FLAG at the C-terminus) (human) (UniProt Q9BT92).
T1 sequence: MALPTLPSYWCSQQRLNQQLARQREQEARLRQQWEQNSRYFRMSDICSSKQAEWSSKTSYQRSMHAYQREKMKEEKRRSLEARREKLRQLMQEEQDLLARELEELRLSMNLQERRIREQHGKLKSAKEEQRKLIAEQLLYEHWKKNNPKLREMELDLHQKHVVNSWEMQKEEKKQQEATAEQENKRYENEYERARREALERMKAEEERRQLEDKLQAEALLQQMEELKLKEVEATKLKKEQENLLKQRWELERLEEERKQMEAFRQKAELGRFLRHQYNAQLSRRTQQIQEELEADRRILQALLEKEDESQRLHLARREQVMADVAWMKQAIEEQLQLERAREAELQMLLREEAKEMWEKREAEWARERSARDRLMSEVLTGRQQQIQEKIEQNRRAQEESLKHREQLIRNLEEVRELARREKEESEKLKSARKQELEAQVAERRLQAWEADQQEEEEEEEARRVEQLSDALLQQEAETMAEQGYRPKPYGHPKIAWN
Put plainly: co-IP.

In assay [2] the target is T2, 3xFLAG-TCHP (FLAG at the N-terminus), full length (human) (UniProt Q9BT92).
T2 sequence: T1 sequence
In words: co-IP.

As for “PCM1, endogenous in HEK293 cells (from UniProt Q15154 1-2024)”, the binding entry in assay [1] and in assay [2] was “binds” each time.
